# According to PubChem BioAssay AID445 (National Center for Advancing Translational Sciences (NCATS), 2006):
# The list shows a part of the results. Further columns of the screen follow, without active or inactive calls. Compounds called inactive in the main read-out are mostly missing here. The note in brackets gives the kind of curve behind each potency; many fits are weak.
# Assay: IkB Signaling
# Conditions: ABC-DLBCL IkBa-CBG/CBR dual luciferase ratio (green luciferase fused to IkBa over red control in OCI-Ly3 lymphoma cells), 4 h
# Procedure, shortened: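 Curves were fitted separately to fusion (green), unfused (red) and ratio luminescence, then classed by r2, magnitude and activity. Cells: OCI-Ly3, 4 h compound plus doxycycline at 37C; 10 uM MG-132 defined full response.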
# [1] = measured here: control luc red channel unless noted
# [2] = measured here: IkB-luc green channel
# [3] = measured here: control luc red channel
structure (smiles),measurement,setting,value
CCOc1ccc(-c2cc3nc(C4CCN(C(=O)OC(C)(C)C)CC4)c(C(=O)Nc4cccc(CC)c4)cn3n2)cc1,AC50,[1],"25.1 µM [falling, partial curve]"
Cc1ccc(CNc2nnc(C)c3nnn(Cc4ccc(F)cc4)c23)cc1,AC50,[1],"1.58 µM [rising, partial curve]"
CC(C)(C)OC(=O)N1CCC(c2c(C(=O)NCCN3CCc4ccccc4C3)cnn2-c2ccc(F)cc2)CC1,AC50,[1],"12.6 µM [falling, partial curve]"
Cc1ccc(CNC(=O)Nc2cc(C(=O)NCc3ccc(C(C)C)cc3)ccc2N2CCCC2)cc1,AC50,[1],"12.6 µM [falling, partial curve]"
COc1ccccc1C(=O)N1c2ncnn2C2(CCCCC2)[C@@H]2CCCC[C@@H]21,AC50,[1],"25.1 µM [falling, single point]"
CCn1c(=O)cc(SCC(=O)NCc2cccc(Cl)c2)c2ccccc21,AC50,[1],"1.58 µM [falling, partial curve, poor fit]"
CSc1nc(Nc2ccc(F)cc2)cc(-c2ccccc2)n1,AC50,[1],"10 µM [falling, partial curve]"
CCOc1ccc(-c2nn(-c3ccccc3)cc2C2NC(=O)NC(C)=C2C(=O)OC(C)C)cc1 (stereo not drawn),AC50,[1],"25.1 µM [falling, single point]"
COc1ccccc1NC(=O)CSc1nncn2c1cc1sccc12,AC50,[1],"15.8 µM [falling, single point]"
CSc1nc(N(CCO)CCO)c2sc3nc(-c4ccco4)c4c(c3c2n1)CCC4,AC50,[1],"12.6 µM [falling, partial curve]"
CCOCCCNC(=O)C(c1ccccc1)N(Cc1ccc2c(c1)OCO2)C(=O)c1ccc(NC(C)=O)cc1 (stereo not drawn),AC50,[1],"7.94 µM [falling, partial curve]"
CCC(=O)C1=C(c2ccc(F)cc2)N(C(=O)CC)n2cnnc2S1,AC50,[2],"31.6 µM [rising, partial curve]"
same,AC50,[3],"3.98 µM [rising, partial curve]"
Cc1ccccc1CN1C(=O)c2ccccc2S(=O)c2ccc(C(=O)NCc3ccc(Cl)cc3)cc21 (stereo not drawn),AC50,[1],"12.6 µM [falling, partial curve]"
O=C(NCc1ccc2c(c1)OCO2)c1ccc2c(c1)N(Cc1ccccc1F)C(=O)c1ccccc1S2,AC50,[1],"12.6 µM [falling, partial curve]"
CCN(C(=O)Cn1c(=O)n(-c2ccccc2)c(=O)c2ccc(C(=O)NCc3ccc4c(c3)OCO4)cc21)c1cccc(C)c1,AC50,[1],"1.58 µM [falling, full curve]"
C=CCNC(=O)c1cc(-c2ccc(Br)cc2)on1,AC50,[1],"2 µM [falling, full curve, poor fit]"
O=C(CCSc1nc2ccccc2o1)N1CCOCC1,AC50,[1],"2 µM [falling, full curve]"
CCC(=O)N1c2ccccc2CC1C(=O)NCc1cc(OC)ccc1OC (stereo not drawn),AC50,[1],"39.8 µM [falling, single point]"
O=C(Nc1ccc2c(c1)OCCO2)c1ccc2nccnc2c1,AC50,[1],"15.8 µM [falling, partial curve]"
CC(C)c1ccc(NC(=O)c2cc(S(=O)(=O)N(C)C3CCCCC3)ccc2F)cc1,AC50,[1],"0.00316 µM [falling, full curve, poor fit]"
CCCCn1cnc2cc(NCc3ccc(OCC)cc3)ccc21,AC50,[1],"31.6 µM [falling, single point]"
CCOc1ccc(NC(=O)c2cc(S(=O)(=O)N3CCc4ccccc43)ccc2F)cc1,AC50,[1],"3.16 µM [falling, full curve]"
Cc1ccc2c(=O)cc(C(=O)Nc3ccc(S(=O)(=O)Nc4onc(C)c4C)cc3)oc2c1C,AC50,[1],"25.1 µM [falling, partial curve]"
O=C(CSc1oc(-c2ccccc2)nc1S(=O)(=O)c1ccc(Cl)cc1)c1ccccc1,AC50,[1],"3.98 µM [falling, full curve]"
Cc1ccc(-n2cc(C(=O)Oc3ccc(F)cc3)c3ccccc3c2=O)cc1,AC50,[1],"31.6 µM [falling, partial curve, poor fit]"
O=C(CC1C(=O)N(c2ccc(F)cc2)C(=O)N1Cc1ccc2c(c1)OCO2)Nc1ccc(Cl)cc1 (stereo not drawn),AC50,[1],"15.8 µM [falling, partial curve]"
O=C(CSc1nc2ccccc2[nH]1)Nc1cc(C(F)(F)F)ccc1N1CCOCC1,AC50,[1],"15.8 µM [falling, partial curve]"
Cc1cc(C)nc(-n2nc(C)c3c2N(Cc2ccccc2)C(=O)CC3c2ccc(Cl)cc2)n1 (stereo not drawn),AC50,[1],"15.8 µM [falling, partial curve]"
NC(=O)c1c(NC(=O)CS(=O)(=O)c2ccc(Cl)cc2)sc2c1CCCCC2,AC50,[1],"12.6 µM [falling, partial curve]"
Cc1ccc(Nc2c(-c3ccc(Br)o3)nc3ccccn23)cc1,AC50,[1],"39.8 µM [falling, single point]"
COc1ccc(-c2cc(C(N)=O)nc(N3CCCCCC3)n2)cc1,AC50,[1],"10 µM [falling, partial curve]"
CCOc1ccc(NC(=O)CSC2=Nc3ccccc3C3=NC(CCC(=O)NCc4ccco4)C(=O)N23)cc1 (stereo not drawn),AC50,[1],"2 µM [rising, full curve, poor fit]"
CCC(=O)Oc1c(Sc2ccc(Cl)cc2)c(C)nn1-c1ccccc1,AC50,[1],"5.01 µM [falling, partial curve]"
Cc1ccc(Cl)cc1N1CCN(C(=O)Cn2ncc3c4ccccc4n(C)c3c2=O)CC1,AC50,[1],"10 µM [falling, partial curve]"
O=C(NCCCN1CCN(c2cccc(Cl)c2)CC1)c1sc2ncccc2c1-n1cccc1,AC50,[1],"31.6 µM [falling, partial curve]"
Cc1cc(Cl)ccc1NS(=O)(=O)c1c(C(=O)N2CCC(C)CC2)c(C)n(C)c1C,AC50,[1],"20 µM [falling, single point]"
CC1CCCN(c2nc3c(-c4ccc(Cl)cc4)nnn3c3ccccc23)C1 (stereo not drawn),AC50,[1],"2 µM [falling, full curve]"
N#Cc1c(N)sc(=S)c2c1CCN(Cc1ccccc1)C2,AC50,[2],"31.6 µM [rising, partial curve]"
same,AC50,[3],"39.8 µM [rising, single point]"
COc1ccc2oc(=O)c(-c3nnc(-c4ccc(C)cc4)o3)cc2c1,AC50,[1],"25.1 µM [falling, partial curve]"
CCN(CC)S(=O)(=O)c1ccc2c(c1)N(CC(=O)NCc1ccccc1)C(=O)C1CCCCN21 (stereo not drawn),AC50,[1],"3.16 µM [falling, partial curve, poor fit]"
Cc1cc2c(cc1S(=O)(=O)Nc1ccc(OC(F)(F)F)cc1)OCC(=O)N2,AC50,[1],"20 µM [falling, single point]"
COc1cc(-c2nnc(SCC(=O)c3cc(C)n(CC4CCCO4)c3C)o2)cc(OC)c1OC (stereo not drawn),AC50,[1],"31.6 µM [falling, single point]"
CCCCCN=Cc1c(C)[nH]n(-c2nc3ccccc3s2)c1=O,AC50,[1],"3.98 µM [falling, partial curve]"
O=C(c1ccc2c(c1)N(Cc1ccccc1F)C(=O)c1ccccc1S2(=O)=O)N1CCN(c2ccccn2)CC1,AC50,[1],"2.51 µM [falling, partial curve]"
OCCCN1c2ccccc2Nc2nnc(-c3ccccc3)cc21,AC50,[1],"7.94 µM [falling, partial curve]"
Cc1ccccc1NC(=O)c1c(C)oc2ccc(O)c(CN3CCOCC3)c12,AC50,[1],"25.1 µM [falling, single point]"
CCc1ccc2[nH]c(=O)c(C(c3nnnn3CCOC)N3CCN(c4ccc(F)cc4)CC3)cc2c1 (stereo not drawn),AC50,[1],"25.1 µM [falling, single point]"
Fc1ccc(C(c2ccc(F)cc2)N2CCN(C/C=C\c3ccccc3)CC2)cc1,AC50,[1],"31.6 µM [falling, partial curve]"
O=C(Nc1ccccc1Cl)c1sc2cccc(Cl)c2c1Cl,AC50,[1],"0.0794 µM [rising, full curve, poor fit]"
Cc1ccc(N(CC(=O)Nc2ccc(Cl)cc2)S(=O)(=O)c2cccc3nonc23)cc1,AC50,[1],"15.8 µM [falling, partial curve]"
CN(C)c1ccc(CNC(=O)Cn2c(=O)oc3cc(S(=O)(=O)N4CCCCCC4)ccc32)cc1,AC50,[1],"25.1 µM [rising, partial curve]"
COc1cc(C(=O)NCc2nnc(SCC(=O)Nc3cc(C)cc(C)c3)o2)cc(OC)c1OC,AC50,[1],"20 µM [falling, partial curve]"
COc1ccc(-n2c(=O)[nH]c3cc(C(=O)NCCc4ccccc4)ccc3c2=O)cc1OC,AC50,[1],"31.6 µM [falling, partial curve]"
O=C(COc1ccccc1)Nc1ccc2nc(SCC(=O)N3CCOCC3)sc2c1,AC50,[1],"25.1 µM [falling, single point]"
CCCn1c2ccccc2c2nnc(SCC(=O)Nc3cccc(C(C)=O)c3)nc21,AC50,[1],"3.16 µM [falling, single point]"
Cc1ccc(NC(=O)c2cnn3c2NC(c2ccccc2)=CC3c2ccccc2)cc1 (stereo not drawn),AC50,[1],"31.6 µM [falling, partial curve]"
CCC(Sc1nnc(C)n2c1cc1occc12)C(=O)Nc1ccccc1OC (stereo not drawn),AC50,[1],"20 µM [falling, single point]"
CCN(Cc1ccccc1)C(=O)c1cnn(-c2ccc(F)cc2)c1-n1cccc1,AC50,[1],"25.1 µM [falling, partial curve]"
Nc1nc(CN2CCN(c3ccccn3)CC2)nc(Nc2ccc(Cl)cc2)n1,AC50,[1],"12.6 µM [falling, partial curve]"
CCCSc1nc2c([nH]c3ccccc32)c(=O)n1C,AC50,[1],"1.26 µM [rising, full curve]"
COc1ccccc1CNC(=O)CSC1=Nc2ccccc2N=C(c2ccc(F)cc2)C1,AC50,[1],"7.94 µM [falling, partial curve]"

# For reference, part of the list above.
structure (smiles),measurement,setting,value
CC1CCCN(c2nc3c(-c4ccc(Cl)cc4)nnn3c3ccccc23)C1 (stereo not drawn),AC50,[1],"2 µM [falling, full curve]"
N#Cc1c(N)sc(=S)c2c1CCN(Cc1ccccc1)C2,AC50,[2],"31.6 µM [rising, partial curve]"
same,AC50,[3],"39.8 µM [rising, single point]"

# Reprinted at random: two records from the list, in no set order.
structure (smiles),measurement,setting,value
O=C(CSc1nc2ccccc2[nH]1)Nc1cc(C(F)(F)F)ccc1N1CCOCC1,AC50,[1],"15.8 µM [falling, partial curve]"
Cc1ccc2c(=O)cc(C(=O)Nc3ccc(S(=O)(=O)Nc4onc(C)c4C)cc3)oc2c1C,AC50,[1],"25.1 µM [falling, partial curve]"
